Measurements as given in PMC4182512.

Tests used:
[1] = molecular target: PssA (bacterial two-hybrid fusion with an adenylate cyclase fragment) (Rhizobium leguminosarum bv. trifolii TA1) (UniProt Q52856); assay: two-hybrid; bacterial two-hybrid (adenylate cyclase T18/T25) in E. coli DHM1 cya reporter strain grown at 30°C; baits in pUT18 or pUT18C, preys in pKT25; blue colonies on LB with X-gal and IPTG and β-galactosidase activity (U/mg bacterial dry weight) significantly higher than in the control
[2] = molecular target: PssC (bacterial two-hybrid fusion with an adenylate cyclase fragment) (Rhizobium leguminosarum bv. trifolii TA1); assay: as above

binding [1]: no binding
binding [2]: no binding
B1: PssP (bacterial two-hybrid fusion with an adenylate cyclase fragment) (protein, UniProt Q27SV1 1-746)
chain: MLSPDKLTPRIDPSRDTGNEADFIDFDKLIAIARRQWRMVAACGFAFAILGIVYVLTSVPVYTADTSVLIDRSDSQVINQLAAFGQMDDDEGTVLSQVELLKSDTIAYAVVDKLKLVDNPEFMGPKSSLFSVSTLKSFMNFRSWFADDAVVAPDPEMRRRGAAETVAGNIDVERVGRSYVLDVSYTAQSPGLARDIAAGIADVYLVDKLNSKYEATRRAGQWLQERIEELRQQALDTDLAVQKFRGEHGLVEAGSTTLISEQQLSEINTQLINAQAETAKAEARYARVKSIIDAKQTDAIVTDVLDSSISNDLRKKYLEASKLETEIEARLGPDHVQAVRLRAEMEEYKRLMFDELNRIAESYQSELQVAKSRENSLRDSVTQATGVATAGETQVQLRELERTRDTYKNLYQSFLTRYQEAIQQQSFPITAARIITTAETRTKPSAPKRALVVAFAMFVGCAFGSGIAAFREFRDRSSAPATMSVTCSMSSLSVSCRSLKITSTIRRSLIPAIREHCQGGKTTTYVEEHPLSAFAETLRSAKIAIDLSAADQRCKVIGVVSSLPGEGKSTTSINFAKLVAMQGARCLLIDGDMRNPGATRAIGRHAEAGLLEAIVDSRPLKDLILLDPKTKLAFLPTVARYRVPHSSELLASRGMDQLLQTARQSFDYIIVDLPPLAPVVDARAINSKLDAVVFVIEWGKTSRKVVQSTLLSEPELYAKCVGTILTKVDPSQMKRLPDIRFERVLL

Results are given in words; binding and its absence hold for the method and conditions named. Tags and fused reporters may be left off the sequences shown.
